Measured values published in PubChem BioAssay AID1347075 (National Center for Advancing Translational Sciences (NCATS), 2019).
Hit rate of the full screen: of about 400,000 compounds, about 5,500 (1.4%) were called active. Inconclusive results, whose numbers are uncertain, are shown with a selection of clear calls. Calls follow the shape of the dose curve; as a rule, active = well fitted cell-killing curve with a large enough effect; inconclusive = small, poorly fitted or top-dose-only effect, or effect the other way; inactive = flat fitted curve, though single readings scatter. Where the call is inconclusive, the potency comes from a doubtful curve fit.

Assay: qHTS assay for MDR1-selective chemotherapeutics: Primary screen using the parental adenocarcinoma cell KB-3-1; also: nearly all actives have a fitted effect of over 60% in size
Settings: KB-3-1 viability, CellTiter-Glo ATP luminescence, 72 h; activity change, negative = cytotoxic: at 46.1 µM (top of the series)
How it was run: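 Parental KB-3-1 viability, qHTS format: 72 h compound exposure, 37 °C; CellTiter-Glo; media-only wells and DMSO plates as controls; concentration-effect fits on corrected data.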
% is scaled to controls: 0 for no effect and ±100 for the full control effect; potency is read from the fitted curve at half-maximal effect.

Question: With O=C(NCc1ccc(Cl)cc1)C(=O)NCC(c1cccnc1)N1CCN(c2ccccc2)CC1 (stereo unspecified) as the compound, how does the Potency read?
Answer: inconclusive: 18.4 µM [cytotoxic, single point]

Question: With O=C(NCCN1CCC(n2c(=O)[nH]c3ccccc32)CC1)c1cccc(Cl)c1 as the compound, how does the Potency read?
Answer: inactive

Question: With CC(Nc1ncnc2c1cnn2-c1cccc(Cl)c1)c1ccccc1 (stereo unspecified) as the compound, how does the Potency read?
Answer: inconclusive: 29.1 µM [cytotoxic, single point]

Question: For O=C(Nc1nnc(-c2ccncc2)s1)Nc1ccc(Cl)cc1Cl, which Potency is on record?
Answer: inactive

Question: Which Potency does the source give for O=C(NNC(=O)c1csc(-c2cccs2)n1)c1ccc(Cl)cc1 here?
Answer: inactive

Question: With Cc1ccc(C(=O)c2cc([N+](=O)[O-])ccc2N2CCOCC2)cc1C as the compound, how does the Potency read?
Answer: active: 16.4 µM

Question: For O=C(NCCC1=CCCCC1)c1coc(=O)c(Br)c1, which Potency is on record?
Answer: inconclusive: 23.1 µM [cytotoxic, single point]

Question: With CCCOc1ccc2cc(-c3ccccn3)c(=O)oc2c1 as the compound, how does the Potency read?
Answer: inconclusive: 29.1 µM [cytotoxic, partial curve, poor fit]

Question: Which Potency does the source give for COc1cccc(C(=O)NN/C(C)=C/C(=O)C(F)(F)C(F)(F)C(F)(F)F)c1 here?
Answer: inconclusive: 29.1 µM [cytotoxic, single point]

Question: With O=C(Nc1nc(-c2ccc3c(c2)OCCO3)cs1)c1ccc(S(=O)(=O)N2CCCCC2)cc1 as the compound, how does the Potency read?
Answer: inconclusive: 29.1 µM [cytotoxic, single point]

Question: With Cc1cc(C)c(S(=O)(=O)N2CCN(C)CC2)c(C)c1 as the compound, how does the Potency read?
Answer: inactive

Question: Which Potency does the source give for O=C1CNC(=S)N1c1nc(-c2ccccc2)cs1 here?
Answer: inactive

Question: For O=C(CN1CCN(Cc2ccccc2Cl)CC1)N/N=C/c1ccccn1, which Potency is on record?
Answer: inconclusive: 29.1 µM [cytotoxic, single point]

Question: For O=[N+]([O-])c1cc(/C=N/O)ccc1Sc1ccccc1, which Potency is on record?
Answer: inconclusive: 20.6 µM [cytotoxic, single point]

Question: With Cc1oc2ncn(CC(C)C)c(=O)c2c1C(=O)N1CCN(c2ccccc2F)CC1 as the compound, how does the Potency read?
Answer: inactive

Question: Which Potency does the source give for Cc1ccc(C(=O)NNC(=S)NC(=O)c2ccccc2)cc1 here?
Answer: inconclusive: 23.1 µM [cytotoxic, partial curve, poor fit]

Question: With CCn1c(-c2cc3c(C(F)(F)F)nn(C)c3s2)n[nH]c1=S as the compound, how does the Potency read?
Answer: inconclusive: 8.2 µM [cytotoxic, partial curve]

Question: With Cc1ccc(NC(=O)c2ccc(Cl)c(N3C(=O)C=CC3=O)c2)cc1 as the compound, how does the Potency read?
Answer: inconclusive: 20.6 µM [cytotoxic, single point]

Question: Which Potency does the source give for CCN(CC)CCNC(=O)c1ccc(NC(=O)c2cn(-c3ccccc3)nc2-c2cccs2)cc1 here?
Answer: inconclusive: 18.4 µM [cytotoxic, single point]

Question: Which Potency does the source give for COc1cccc(-c2csc(N3CCN(C(=O)C4CCCCC4)CC3)n2)c1 here?
Answer: inconclusive: 18.4 µM [cytotoxic, single point]

Question: Which Potency does the source give for COc1ccc(-c2n(Cc3ccccc3)c3ccccc3[n+]2Cc2ccccc2)cc1 here?
Answer: active: 7.31 µM

Question: Which Potency does the source give for CSc1ccc(CCNC(=O)CN2C(=O)COc3ccc(S(=O)(=O)N4CCCC4)cc32)cc1 here?
Answer: inactive

Question: With Cn1cccc1-c1nc2ccc(NC(=O)c3ccc([N+](=O)[O-])cc3)cc2[nH]1 as the compound, how does the Potency read?
Answer: inconclusive: 5.8 µM [rising, full curve]

Question: Which Potency does the source give for CS(=O)(=O)N(CC(=O)Nc1ccccc1Sc1ccccc1)C1CCCCC1 here?
Answer: inconclusive: 29.1 µM [cytotoxic, single point]

Question: With O=S(=O)(c1ccc2c(c1)C(=NO)c1cc(S(=O)(=O)N3CCCCC3)ccc1-2)N1CCCCC1 as the compound, how does the Potency read?
Answer: active: 1.16 µM

Question: Which Potency does the source give for O=C1Nc2ccc(Br)cc2/C1=C/C(=O)c1ccc2c(c1)OCO2 here?
Answer: inconclusive: 29.1 µM [cytotoxic, single point]

Question: With Cc1ccc(C(=O)Nc2cccc(C(=O)NCc3ccccc3)c2)cc1 as the compound, how does the Potency read?
Answer: active: 8.2 µM

Question: With CC(C)CN1C(=O)/C(=C/c2ccco2)NC1=S as the compound, how does the Potency read?
Answer: inactive

Question: Which Potency does the source give for O=C(Nc1ccc(F)c(Cl)c1)C1CCN(c2ncccn2)CC1 here?
Answer: inactive

Question: With O=C(/C=C/c1ccc(O)c(O)c1)OC(Cc1ccc(O)c(O)c1)C(=O)O (stereo unspecified) as the compound, how does the activity change, negative = cytotoxic read?
Answer: inconclusive: 0%

Question: With C=CCC(Nc1ccccc1)C12C=CC(O1)C(C(=O)OC)=C2C(=O)OC (stereo unspecified) as the compound, how does the Potency read?
Answer: active: 18.4 µM

Question: Which Potency does the source give for O=C(NCc1ccccc1)N1CCN(c2ccc(Cl)c(Cl)c2)CC1 here?
Answer: inconclusive: 5.17 µM [cytotoxic, full curve]

Question: With Cc1cc(-n2c(C)nc3ccccc3c2=O)ccc1NC(=O)c1cccc([N+](=O)[O-])c1C as the compound, how does the Potency read?
Answer: inactive

Question: Which Potency does the source give for COc1ccc(NC(=O)CC(=O)Nc2ccc(OC)cc2OC)c(OC)c1 here?
Answer: inactive

Question: With CCOCCCN(C)C1CCN(C(=O)c2oc3ccccc3c2NC(=O)c2ccc(F)cc2)CC1 as the compound, how does the Potency read?
Answer: inactive

Question: For O=C(NNC(=O)C1CCCCC1)C(=O)NC1CCCCC1, which Potency is on record?
Answer: inactive

Question: With Cc1noc(C)c1S(=O)(=O)N1CCCC(C(=O)Nc2nccs2)C1 (stereo unspecified) as the compound, how does the Potency read?
Answer: inconclusive: 29.1 µM [cytotoxic, single point]

Question: For COC(=O)c1ccccc1NC(=O)C1CCCN(C(=O)c2cnn(-c3ccc(F)cc3)c2-n2cccc2)C1 (stereo unspecified), which Potency is on record?
Answer: inconclusive: 29.1 µM [cytotoxic, single point]

Question: For Cc1ccc(C(C(=O)NC2CCCC2)N(Cc2ccc(F)cc2)C(=O)c2snc(C(N)=O)c2N)o1 (stereo unspecified), which Potency is on record?
Answer: inconclusive: 29.1 µM [cytotoxic, single point]

Question: Which Potency does the source give for O=C(Cn1cnc([N+](=O)[O-])c1)Nc1cc(Oc2ccc(Cl)cc2Cl)cc([N+](=O)[O-])c1 here?
Answer: inconclusive: 29.1 µM [cytotoxic, single point]

Question: With Nc1c(N(CCC2=CCCCC2)C(=O)COc2ccc(F)cc2Cl)c(=O)[nH]c(=O)n1Cc1ccccc1 as the compound, how does the Potency read?
Answer: active: 8.2 µM

Question: For COc1cc2c(cc1OC)CN(C(=O)c1cccc(S(=O)(=O)N3CCc4ccccc43)c1)CC2, which Potency is on record?
Answer: inactive

Question: For S=c1[nH]c(-c2ccccc2)cn1/N=C/c1cccc2ccccc12, which Potency is on record?
Answer: inconclusive: 29.1 µM [cytotoxic, single point]

Question: Which Potency does the source give for Cc1cc(C)n(C(C[N+](=O)[O-])c2ccc(Cl)cc2)n1 (stereo unspecified) here?
Answer: inconclusive: 29.1 µM [cytotoxic, single point]

Question: Which Potency does the source give for Cc1ccc(S(=O)(=O)NNC(=O)Nc2ccccc2F)c(C)c1 here?
Answer: inactive

Question: For CC1=NN(c2cccc(C(=O)O)c2)C(=O)/C1=C\C=C/c1ccccc1, which Potency is on record?
Answer: inconclusive: 29.1 µM [cytotoxic, single point]

Question: With CCOC(=O)c1ccc(-n2c(=S)sc3c(=O)[nH]c(C)nc32)cc1 as the compound, how does the Potency read?
Answer: inactive

Question: Which Potency does the source give for Cc1ccccc1C(=O)N/C(=C/c1ccc(-c2cccnc2Cl)o1)C(=O)NCCCN1CCN(C)CC1 here?
Answer: inactive

Question: With N/C(=N\OC(=O)c1cc(Cl)ccc1Cl)c1ccccn1 as the compound, how does the Potency read?
Answer: inactive

Question: Which Potency does the source give for Cc1ccc(S(=O)(=O)c2c(C)nn(C(C)(C)C)c2OC(=O)c2ccc(Br)o2)cc1 here?
Answer: inconclusive: 25.9 µM [cytotoxic, single point]

Question: Which Potency does the source give for O=C(Nc1ccc(N2CCCCC2)cc1)c1ccc2c(c1)OCCO2 here?
Answer: inconclusive: 9.2 µM [cytotoxic, partial curve]

Question: Which Potency does the source give for CCOc1ccc(C(=O)Nc2ccccc2-c2ccccc2)cc1Cl here?
Answer: inconclusive: 20.6 µM [cytotoxic, single point]

Question: With CC1=Nc2ccc(C)cc2/C1=C/c1c(N)n2c(S(=O)(=O)C(C)C)nsc2nc1=O as the compound, how does the Potency read?
Answer: inactive

Question: For O=Cc1ccc(B(O)O)cc1, which Potency is on record?
Answer: inconclusive: 29.1 µM [rising, single point]

Question: Which Potency does the source give for COC(=O)CSc1nc2cc3c(cc2cc1C)OCO3 here?
Answer: inactive

Question: With CC(C)c1ccc(NC(=O)C2Cc3c(-c4ccc(Cl)cc4)ccnc3O2)cc1 (stereo unspecified) as the compound, how does the Potency read?
Answer: inactive

Question: With CC(Cc1cccc(C(F)(F)F)c1)NCCOC(=O)c1ccccc1 (stereo unspecified) as the compound, how does the Potency read?
Answer: inactive

Question: Which Potency does the source give for COc1ccc(C(=O)NNC(=S)NC(=O)c2cccc([N+](=O)[O-])c2)cc1 here?
Answer: inconclusive: 29.1 µM [cytotoxic, single point]

Question: Which Potency does the source give for CCCCOc1ccccc1C(=O)NNC(=S)NC(=O)c1ccccc1[N+](=O)[O-] here?
Answer: inconclusive: 29.1 µM [cytotoxic, single point]

Question: For COc1cc(OC)cc(C(=O)NC(=S)NNC(=O)Cc2cccs2)c1, which Potency is on record?
Answer: inconclusive: 29.1 µM [cytotoxic, single point]

Question: Which Potency does the source give for C[C@H]1CN([C@@H](C)CO)C(=O)CCCn2cc(nn2)CO[C@@H]1CN(C)S(=O)(=O)c1ccccc1C#N here?
Answer: inconclusive: 29.1 µM [cytotoxic, single point]

Question: For CC1CCCCN1C(=O)c1cc(-c2ccc3c(c2)OCO3)on1 (stereo unspecified), which Potency is on record?
Answer: inactive

Question: For O=C(NCCCN1CCN(c2ccccc2)CC1)C1CCCN(c2ncnc3c2nc2n3CCCCC2)C1 (stereo unspecified), which Potency is on record?
Answer: inactive

Question: For CCN1CCN(c2nc(N)c([N+](=O)[O-])c(Nc3cccc(C)c3)n2)CC1, which Potency is on record?
Answer: inconclusive: 29.1 µM [cytotoxic, single point]

Question: Which Potency does the source give for CC(C)n1ncc2c(C(=O)N3CCN(Cc4ccc(Br)s4)CC3)cc(C3CC3)nc21 here?
Answer: inconclusive: 20.6 µM [cytotoxic, single point]

Question: For COCCN(CCOC)S(=O)(=O)c1ccc(C(=O)Nc2nc(-c3ccccc3)c(C(=O)c3ccccc3)s2)cc1, which Potency is on record?
Answer: inactive

Question: For CCOC(=O)C1=CCN(S(=O)(=O)c2ccc(C)cc2)[C@H]1c1ccccc1Cl, which Potency is on record?
Answer: inconclusive: 29.1 µM [cytotoxic, single point]

Question: With COC(=O)Nc1ccc(S(=O)(=O)N2CCN(c3ccc(F)cc3)CC2)cc1 as the compound, how does the Potency read?
Answer: inconclusive: 20.6 µM [cytotoxic, partial curve]

Question: Which Potency does the source give for CCOc1cc(C2NC(=O)NC(C)=C2C(=O)OC(C)CC)cc(Br)c1O (stereo unspecified) here?
Answer: inconclusive: 20.6 µM [cytotoxic, single point]

Question: Which Potency does the source give for COc1cc2c(Nc3ccc(NC(=O)c4ccccc4)cc3)ncnc2cc1OCCCN1CCOCC1 here?
Answer: inconclusive: 16.4 µM [cytotoxic, partial curve, poor fit]

Question: For CCOc1ccccc1NC(=O)c1ccccc1-c1nc(-c2ccccc2)no1, which Potency is on record?
Answer: inconclusive: 29.1 µM [cytotoxic, single point]
